Experimental findings from the supplement of paper PMC10338343 are described below.

± gives the standard deviation. Only a part is listed here, and it is no random draw. The uncertainty is large for many entries. Some of the results follow.

The test system of experiment [1] is MILI (PIWIL2) piRISC loaded with L1MC piRNA (26 nt). As to the kind of experiment: pre-steady-state target cleavage rate (min^-1); higher = faster piRNA-guided slicing of the target. As to conditions: guide: L1MC piRNA 5'p-UAACUAAAUACUAUGCAAGCUGUAGG;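 further: 1 nM active piRISC with 0.1 nM target library at 33 °C single turnover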
In a few lines:
(§1)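 A transcribed, DNA-blocked target RNA library […] was incubated at 33 °C for 0–8 or 0–960 min with 1 nM active affinity-purified piRISC carrying one synthetic guide, in HEPES–potassium acetate buffer with or without 500 nM GTSF1 partner protein. Uncleaved targets were then sequenced and normalised to depth and to weakly complementary targets. Data from three trials were pooled, with k3 capped at 0.0001 min^-1, and a burst-and-steady-state fit yielded the pre-steady-state cleavage rate.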

Experiment [2] concerns EfPiwi piRISC loaded with L1MC piRNA (26 nt). As to the kind of experiment: pre-steady-state target cleavage rate (min^-1); guide: L1MC piRNA 5'p-UAACUAAAUACUAUGCAAGCUGUAGG; MIWI and MILI are mouse PIWI proteins and EfPiwi is from a freshwater sponge; tags in brackets are library labels; higher = faster piRNA-guided slicing of the target. In a few lines:
as §1

[3] abbreviates: auxiliary factor: none (no GTSF1).
[4] abbreviates: auxiliary factor: 500 nM Ephydatia muelleri Gtsf1.
[5] abbreviates: auxiliary factor: none (no Gtsf1).
[6] abbreviates: auxiliary factor: 500 nM mouse GTSF1.

With UCCUCCUACAGCUUGCAUAUAUUUAGUUA, the “pre-steady-state target cleavage rate” value in experiment [1] (setting [3]) came out at 0.00198 ± 0.0039; in experiment [2] (setting [4]), 0.00725 ± 0.0034.
Take UCCUGCUACAGCUUGCAUAGUAUUAAGUAA: the “pre-steady-state target cleavage rate” value was determined as 0.00125 ± 0.0055 in experiment [1] (setting [3]) and 0.000545 ± 0.015 in experiment [2] (setting [5]).
UCCUGGAACAGCUUGCAUACUAUUUAGUAA: the “pre-steady-state target cleavage rate” value in experiment [1] (setting [3]) is 0.00156 ± 0.0039; in experiment [2] (setting [4]), 0.00398 ± 0.0022.
For UCCUCCUACAGCUUGCAUACUAUUUACAAA, the “pre-steady-state target cleavage rate” value in experiment [1] (setting [3]) amounted to 0.00109 ± 0.0055; in experiment [2] (setting [5]) it was 0.000467 ± 0.015.
With UCCUGCUACUGCUUGCAUAGUAUUUAGAAA, the “pre-steady-state target cleavage rate” value amounted to 0.000779 ± 0.0064 in experiment [1] (setting [3]) and 0.00545 ± 0.0023 in experiment [2] (setting [4]).
The like results for UCCUGGAUGUCGAACCAUAGUAUAUUAGUUA were, in that order, 0.000318 ± 0.018 and 0.000293 ± 0.023.
Turning to UCCUGCUACAGCUUGCAUAGUAUUUACAUA, the results for the “pre-steady-state target cleavage rate” value in experiment [1] (setting [3]) and in experiment [2] (setting [5]) were 0.00222 ± 0.0037 and 0.00027 ± 0.023, respectively.
With UCCUGGAUCAGCUUGCAUAGUAAAAUCAAA, the “pre-steady-state target cleavage rate” value in experiment [1] (setting [3]) is 0.0011 ± 0.0045; in experiment [2] (setting [4]) it was 0.00118 ± 0.0041.
With UCCUGGUACAGCUUGCAUAGUAAUUAGUAA, the “pre-steady-state target cleavage rate” value was determined as 0.00204 ± 0.0042 in experiment [1] (setting [3]) and 0.00568 ± 0.0029 in experiment [2] (setting [4]).
For UCCUCCUACAGCUUGCAUACUAUUUAGUAA, in that order: 0.00148 ± 0.0041 and 0.00454 ± 0.0033.
For the sequence UCCUGGAUCAGCUUGCAUAGUAUUUACAUA, the entries for the “pre-steady-state target cleavage rate” value in experiment [1] (setting [3]) and in experiment [2] (setting [4]) were 0.00201 ± 0.0031 and 0.00271 ± 0.0021, respectively.
For UCCUCCUACAGCUUGCAUAGUUAAUAGUUA, in that order: 0.0019 ± 0.0037 and 0.00703 ± 0.0035.
Turning to UCCUGGAUGAGCUUGCAUAGUAUUAUGUUA, the figures for the “pre-steady-state target cleavage rate” value in experiment [1] (setting [3]) and in experiment [2] (setting [4]) were 0.0019 ± 0.0047 and 0.000918 ± 0.0061, respectively.
In the case of UCCUGCAACAGCUUGCAUAGUAAUUAGUUA, the results for the “pre-steady-state target cleavage rate” value in experiment [1] (setting [6]) and in experiment [2] (setting [4]) were 0.34 ± 0.025 and 0.00951 ± 0.0021, respectively.
For the sequence UCCUGGAUGUGCUUCCAUACUAUUUAGUUA, the figures for the “pre-steady-state target cleavage rate” value in experiment [1] (setting [3]) and in experiment [2] (setting [4]) were 0.000472 ± 0.012 and 0.00132 ± 0.006, respectively.
With UCCUGCUACAGCAUUGCAUAGUAUUUAGUUA, the entries for the “pre-steady-state target cleavage rate” value in experiment [1] (setting [6]) and in experiment [2] (setting [4]) were 0.286 ± 0.02 and 0.00946 ± 0.0029, respectively.
Consider UCCUGGAUGUCGAAGCAUAGUAUUUGUUA, for which the “pre-steady-state target cleavage rate” value in experiment [1] (setting [3]) is below 0.0001; in experiment [2] (setting [4]) it was 0.000778 ± 0.0068.
For UCCUGGAUGUCGAACCAUAGUAUUAAGAUA, in that order: 0.000137 ± 0.033 and 0.000158 ± 0.028.
The like results for UCCUGGAUCAGCUUGCAUAGUAUAUACUUA were, in that order, 0.00182 ± 0.0029 and 0.00211 ± 0.0049.
Regarding UCCUCCUACAGCUUGCAUAGUAUUUAGUCUA, the entries for the “pre-steady-state target cleavage rate” value in experiment [1] (setting [3]) and in experiment [2] (setting [5]) were 0.00288 ± 0.0029 and 0.000558 ± 0.011, respectively.
For the sequence UCCUGGAUCAGCUUGCAUAGUAUUUACUAA, the “pre-steady-state target cleavage rate” value in experiment [1] (setting [3]) came to 0.00101 ± 0.0075; in experiment [2] (setting [4]) it was 0.0012 ± 0.003.
The like results for UCCUGGUACAGCUUGGAUACUAUUUAGUUA were, in that order, 0.00193 ± 0.0067 and 0.000558 ± 0.014.
Regarding UCCUGGAUCAGCUUGCAUUGAAUUUAGUUA, the “pre-steady-state target cleavage rate” value in experiment [1] (setting [3]) stood at 0.00204 ± 0.0026; in experiment [2] (setting [4]) it was 0.000504 ± 0.0063.
Consider UCCUGGAUGAGCUUGCAUAGUAUUUAAUUA, for which the “pre-steady-state target cleavage rate” value amounted to 0.00253 ± 0.0031 in experiment [1] (setting [3]) and 0.00294 ± 0.0025 in experiment [2] (setting [4]).
The like results for UCCUGGAUGUGCUUGCAUAGUAAUUAGAUA were, in that order, 0.000931 ± 0.0083 and 0.00395 ± 0.0024.
As to UCCUGGAGCAGCUUGCAUAGUAUUUAGUUA, the “pre-steady-state target cleavage rate” value worked out at 0.333 ± 0.021 in experiment [1] (setting [6]) and 0.101 ± 0.024 in experiment [2] (setting [4]).
As to UCCUCCUACAGCUUGCAUAGUAUAUAGAUA, the results for the “pre-steady-state target cleavage rate” value in experiment [1] (setting [3]) and in experiment [2] (setting [5]) were 0.00135 ± 0.0044 and 0.000554 ± 0.0096, respectively.
As for UCCUCCUAGUGCUUGCAUAGUAUUUACAAA, the “pre-steady-state target cleavage rate” value came to 0.000979 ± 0.0043 in experiment [1] (setting [3]) and 0.00293 ± 0.0029 in experiment [2] (setting [4]).
For UCCUGGUACAGCUUGCAUAGUUUAUAGUUA, in that order: 0.00282 ± 0.0033 and 0.00189 ± 0.0035.
For UCCUGGAUGUCGAACGAUACAUUUUAGUUA, the “pre-steady-state target cleavage rate” value is 0.000196 ± 0.018 in experiment [1] (setting [3]) and below 0.0001 in experiment [2] (setting [4]).
For UCCUCCUUCAGCUUGCAUAGUAUUUACAAA, in that order: 0.00132 ± 0.0045 and 0.00379 ± 0.0027.
For UCCUGGAUCACCUUGCAUAGUAUAUAGUUA, in that order: 0.00245 ± 0.0045 and 0.00229 ± 0.007.
Consider UCCUGGAUCAGCUUGCAUAGUUAAUAGUUA, for which the “pre-steady-state target cleavage rate” value in experiment [1] (setting [3]) amounted to 0.00274 ± 0.003; in experiment [2] (setting [5]), 0.000682 ± 0.013.
Take UCCUGGAUGAGCUUGCAUUGUUUUUAGUUA: the “pre-steady-state target cleavage rate” value in experiment [1] (setting [3]) amounted to 0.00285 ± 0.003; in experiment [2] (setting [4]), 0.000739 ± 0.0065.
UCCUGCUUCAGCUUGCAUAGUAUUUAGUUA: the “pre-steady-state target cleavage rate” value is 0.312 ± 0.019 in experiment [1] (setting [6]) and 0.103 ± 0.025 in experiment [2] (setting [4]).
